No constants are given. Whether binding was seen depends on the method and setting. In cells and extracts the contact can be indirect. Here binding means that the protein was enriched with, or labelled near, the bait; the list need not be complete. For some assays here: No binding means not detected with the bait. Where a sequence is shown, tags or fusion partners need not be part of it.
T1: σ^E-HA (HA-tagged extracytoplasmic function σ factor σ^E of Streptomyces coelicolor) (Streptomyces coelicolor) (UniProt P38133)
T1 sequence: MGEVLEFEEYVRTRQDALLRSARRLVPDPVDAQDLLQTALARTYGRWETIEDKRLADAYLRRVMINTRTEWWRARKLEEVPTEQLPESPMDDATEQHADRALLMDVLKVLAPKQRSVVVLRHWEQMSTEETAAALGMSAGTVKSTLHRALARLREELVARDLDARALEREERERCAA

B1: putative nucleic acid binding protein SCO0174 (protein, UniProt Q9RIZ1 1-323)
chain: MGAVSPREAGVRNSFDGEGAVMYAHLGDRLIVESPSTGVTRRDGEIVGLHHDDGTPPYDVRWSDTGDVTLVFPGPDARVNHGAEEAEASQGAPSGVSRGEGVDSSLIAAGAGDLGRRLAAARRRRGLSLEQVARRARMAPQYLAYLETHTADPGFGSLVRLADALGTTYAELQGGGADRPPGQGAALRNPTLRDLDEKECRALLSAHGVGRLALNTPDGPAVFPLNYVVSQGTIAFRTDPDAATAAAVDSEVAFEVDHIDDPMSQGWSVLAVGRCRAVTDPEEVRRLAEKAHTEPWAGGRRTMWLAVETERLTGRRITSVSGS
B2: putative nucleic acid binding protein SCO5570 (protein, UniProt Q9ZBQ9 1-217)
chain: MVLNARLDHRDPLVFDTHELGRRPGALQRLTRTVDAPKDFGLQGVIGVPEGAPVELDLRLESVMEGVLVTGTARARAAGECVRCLEPLEQQLEADFQELFSYPDADDRGRPVAEPGDDAEDDEDRFFVEDGLIGLEPVLRDAVVLALPMQPVCQEDCRGLCSQCGVRLSDDPDHHHDAVDIRWAALQGLAGSLGDGEKDEMSGDGADSADAAEKQEK

How the values were obtained:
[1] = target: T1, σ^E-HA (HA-tagged extracytoplasmic function σ factor σ^E of Streptomyces coelicolor) (Streptomyces coelicolor); test: affinity purification with mass spectrometry; non-stressed cells; lysate of S. coelicolor LK3802 (σ^E-HA) in 1×P buffer, no nuclease treatment, mouse anti-HA antibody with Protein-G Plus agarose, overnight at 4 °C; untagged wt LK3801 as background; label-free quantification, three biological replicates
[2] = target: T1, σ^E-HA (HA-tagged extracytoplasmic function σ factor σ^E of Streptomyces coelicolor) (Streptomyces coelicolor); test: condition: only cells stressed with 4% EtOH for 1 h; affinity purification with mass spectrometry; cells stressed with 4% EtOH for 1 h; lysate of S. coelicolor LK3802 (σ^E-HA) in 1×P buffer, no nuclease treatment, mouse anti-HA antibody with Protein-G Plus agarose, overnight at 4 °C; untagged wt LK3801 as background; label-free quantification, three biological replicates
[3] = target: T1, σ^E-HA (HA-tagged extracytoplasmic function σ factor σ^E of Streptomyces coelicolor) (Streptomyces coelicolor); test: affinity purification with mass spectrometry; cells stressed with 4% EtOH for 1 h; lysate of S. coelicolor LK3802 (σ^E-HA) in 1×P buffer, no nuclease treatment, mouse anti-HA antibody with Protein-G Plus agarose, overnight at 4 °C; untagged wt LK3801 as background; label-free quantification, three biological replicates

| Molecule | binding [1] | binding [2] | binding [3] |
| --- | --- | --- | --- |
| termination factor Rho | binds | no binding | – |
| HupA, a DNA binding protein | binds | – | binds |
| transcriptional regulator CarD | binds | no binding | – |
| nucleoid-binding protein Lsr2 | no binding (only cells without EtOH stress) | – | binds |
| transcriptional regulator BldC | binds | no binding | – |
| putative anti-σ factor ApgA | binds | no binding | – |
| nucleoid-binding protein sIHF | no binding (only cells without EtOH stress) | – | binds |
| transcriptional regulator NdgR | no binding (only cells without EtOH stress) | – | binds |
| B1 | binds | no binding | – |
| B2 | binds | no binding | – |

Source: PMC10771440
